# Test results published in PMC10499034.
# Results are given in words; binding and its absence hold for the method and conditions named. In cells and extracts the contact can be indirect. A result given as binding can be weak or reduced; the word gives no strength. Where a sequence is shown, tags or fusion partners need not be part of it.
# Molecular target: T1, GST-tagged Rab19 (UniProt A4D1S5)
# T1 sequence: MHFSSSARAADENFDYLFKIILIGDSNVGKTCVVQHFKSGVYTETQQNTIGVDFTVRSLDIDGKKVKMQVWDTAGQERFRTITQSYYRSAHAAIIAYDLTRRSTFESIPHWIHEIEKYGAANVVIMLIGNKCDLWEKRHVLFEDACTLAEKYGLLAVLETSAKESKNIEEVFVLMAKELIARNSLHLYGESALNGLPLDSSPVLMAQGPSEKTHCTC
# Experiment: pull-down; purified GST–Rab19 added to WT or Vps41 KO MDCK cell lysates, loaded with GMP-PCP or GDP, captured on glutathione beads; lysis 20 mM HEPES pH 7.4, 150 mM NaCl, 1% Triton-X; washes with 300 mM NaCl, 0.1% Triton-X; immunoblot for endogenous Vps11; only the target purified
substance,measurement,value
"Vps11 (endogenous, MDCK cells)",binding,binds
